Data on 55 compounds can be found in PubChem BioAssay AID1487 (National Center for Advancing Translational Sciences (NCATS), 2009).

A short description of this assay: qHTS Assay for Modulators of Lamin A Splicing. To be noted: HeLa LMNA splicing GFP/RFP minigene ratio, 48 h. In outline: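 S3 HeLa cells stably expressing lamin A-EGFP splicing minigene plus DsRed2, 600 cells/well, 48 h compound exposure at 37C. Laser-scanning cytometry; analysed as GFP (500-530 nm)/RFP (575-640 nm) total intensity ratio; 0.5% DMSO vehicle.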
For orientation: qHTS replaces the single test concentration by a dilution series.

The mark [1] stands for this setting: measured here: RFP viability control channel.
The mark [2] stands for this setting: measured here: GFP splicing reporter channel.

This is one part of the list. Shown are side measurements of this screen, not its main read-out; they come without a call. The list favours compounds with an active or inconclusive main result. Potencies come from curve fits of mixed quality, noted in brackets.

Broadly, the AC50 is the concentration giving half of the maximal activity seen. Consider `N[C@@H]1CONC1=O`, for which the AC50 under setting [1] is 6.31 µM [falling, single point].

For the compound `CCc1nc(SCC(=O)N2CCCc3ccccc32)c2oc3ccccc3c2n1`, the AC50 reads like this: under setting [2], 20 µM [falling, single point]; under setting [1], 31.6 µM [falling, single point].

Take `O=C(NCC(c1cccnc1)N1CCN(c2ccccc2F)CC1)OCc1ccccc1` (stereo not drawn): the AC50 under setting [1] was 31.6 µM [rising, single point].

`COc1cc(C(=O)Nc2ccc3c(c2)Cc2ccccc2-3)cc(OC)c1OC`: the AC50 under setting [1] is 3.16 µM [rising, single point].

For the compound `Fc1ccccc1NC(=S)N1CCN(C/C=C/c2ccccc2)CC1`, the AC50 under setting [1] is 31.6 µM [rising, single point].

On to `Clc1ccccc1CSc1nnc(-c2cccnc2)n1Cc1ccco1`, for which the concentration at half-maximal activity (AC50) is 0.0126 µM [rising, full curve, poor fit] under setting [2] and 0.0178 µM [rising, full curve] under setting [1].

For the compound `COc1ccc(CCN(Cc2cccs2)S(=O)(=O)c2ccc(S(=O)(=O)N(C)C3CCCCC3)cc2)cc1OC`, the AC50 was 5.62 µM [rising, partial curve] under setting [2] and 6.31 µM [rising, full curve] under setting [1].

Regarding `COc1cccc(Cn2c(=O)c(-c3cn(C)c4ccccc34)nc3cncnc32)c1`, the AC50 is, setting by setting: under setting [2], 0.891 µM [falling, full curve]; under setting [1], 1 µM [falling, full curve].

In the case of `CN(c1ccccc1)S(=O)(=O)c1nnc(NC(=O)c2ccco2)s1`, the AC50 was 0.0224 µM [rising, full curve, poor fit] under setting [2] and 0.0355 µM [rising, full curve, poor fit] under setting [1].

As for `CCOC(=O)C1=C(C)NC(C)=C(C(=O)OCC)C1c1cccs1`, the half-maximal activity concentration (AC50) under setting [1] was 35.5 µM [rising, single point].

Regarding `Cc1ccc(NC(=O)c2cc(-c3cccs3)nc3ccccc23)nc1`, under setting [2], the AC50 is 0.00794 µM [rising, full curve, poor fit].

On to `Oc1ccccc1/C=N/NC(=S)NC1CC2C=CC1C2` (stereo not drawn), for which the AC50 is 5.62 µM [falling, single point] under setting [2] and 20 µM [rising, single point] under setting [1].

For the compound `COc1ccc(-c2cn(-c3ccc(Br)cc3)c3[n+]2CCS3)cc1`, the AC50 under setting [1] is 8.91 µM [rising, partial curve].

Consider `O=C(c1sc2cccc(F)c2c1Cl)N1CCN(c2ncccn2)CC1`, for which the AC50 under setting [1] was 0.398 µM [rising, partial curve, poor fit].

Turning to `Cc1cc(C)cc(NC(=O)Cn2cc(C(=O)c3ccncc3)c(=O)c3cc(C)c(C)cc32)c1`, the AC50 under setting [1] was 0.00316 µM [rising, full curve, poor fit].

Take `CC(=O)N=C1SC2CS(=O)(=O)CC2N1c1c(Cl)cccc1Cl` (stereo not drawn): the AC50 under setting [1] was 0.794 µM [rising, full curve, poor fit].

Consider `Cc1ccccc1CN1C(=O)c2ccccc2Sc2ccc(C(=O)O)cc21`, for which, under setting [1], the AC50 was 8.91 µM [rising, partial curve].

On to `Cc1ccc(NC(=O)NC2CCN(CC(=O)Nc3nccs3)CC2)cc1`, for which the AC50 under setting [1] is 35.5 µM [rising, single point].

Turning to `O=S(=O)(c1cc(Br)c(Br)s1)N1CCN(c2ccccc2)CC1`, under setting [1], the AC50 was 3.16 µM [falling, partial curve, poor fit].

For the compound `CC(=O)NC(CC(=O)Nc1nc(C)cs1)c1ccccc1` (stereo not drawn), the AC50 under setting [1] was 2.51 µM [falling, partial curve, poor fit].

Take `CN(Cc1ccco1)c1ncnc2ccc(-c3ccccc3Cl)cc12`: the concentration at half-maximal activity (AC50) is 35.5 µM [falling, single point] under setting [2] and 35.5 µM [falling, single point] under setting [1].

With `COc1ccc(NC(=O)C2CCN(S(=O)(=O)c3cn(C)cn3)CC2)cc1Cl`, the AC50 under setting [2] is 1.41 µM [rising, partial curve].

Take `COc1ccc(S(=O)(=O)N(CC(=O)N2CCN(c3ccccc3OC)CC2)c2ccccc2)cc1`: the AC50 was 31.6 µM [rising, single point] under setting [2] and 35.5 µM [rising, partial curve] under setting [1].

`CCOC(=O)c1sc2nc(Cc3ccc(Cl)cc3)[nH]c(=S)c2c1C`: under setting [1], the AC50 is 0.0112 µM [rising, full curve].

`Cc1cc(C(=O)COc2ccc(Cl)cc2Br)c(C)n1C`: the AC50 under setting [1] is 12.6 µM [rising, partial curve].

As for `O=C(CSCc1cnn(-c2ccccc2)c1-n1cccc1)NCc1ccc2c(c1)OCO2`, under setting [1], the AC50 is 35.5 µM [rising, single point].

As for `Cc1cccc(NS(=O)(=O)c2ccc3c(c2)OCCO3)c1`, the AC50 under setting [1] is 31.6 µM [rising, single point].

With `Cc1cccc(C)c1NC(=O)C(c1ccccc1)N1CC(=O)Nc2ccccc21` (stereo not drawn), the AC50 under setting [1] is 2.24 µM [rising, single point].

In the case of `COc1cc(/C=N/NC(=O)c2cccnc2)ccc1OS(=O)(=O)c1cc(C)ccc1C`, the AC50 reads like this: under setting [2], 11.2 µM [rising, single point]; under setting [1], 12.6 µM [rising, single point].

Consider `O=C(CN1C(=O)C2C3C=CC(C3)C2C1=O)NCc1ccccc1` (stereo not drawn), for which the AC50 under setting [1] was 0.891 µM [falling, full curve, poor fit].

On to `c1ccc(CN2CCN(c3nc(-c4ccccc4)nc4ccccc34)CC2)cc1`, for which the AC50 under setting [1] is 31.6 µM [rising, single point].

For the compound `Cn1c(C(=O)NCC2CCCO2)cc2oc3ccccc3c21` (stereo not drawn), the AC50 is 35.5 µM [rising, single point] under setting [2] and 35.5 µM [rising, single point] under setting [1].

In the case of `CCN1C/C(=C/c2ccc(OC)c(O)c2)C(=O)/C(=C/c2ccc(OC)c(O)c2)C1`, the AC50 under setting [1] is 2.82 µM [falling, partial curve].

As for `CSc1ccc(C2c3[nH]c4ccccc4c3CCN2C(=O)c2cc(C)n(C)n2)cc1` (stereo not drawn), the AC50 reads like this: under setting [2], 35.5 µM [rising, single point]; under setting [1], 12.6 µM [rising, partial curve].

`O=C(/C=C/c1ccco1)N1CCN(c2ccccc2)CC1`: the AC50 under setting [2] is 3.16 µM [rising, partial curve, poor fit].

With `O=c1c2c(nc3cc(-c4cccc(Cl)c4)[nH]n13)CCCC2`, the AC50 under setting [1] was 31.6 µM [rising, single point].

As for `CCOc1cc(/C=C/c2ccc3cccc([N+](=O)[O-])c3n2)ccc1O`, the AC50 under setting [1] is 14.1 µM [rising, partial curve].

With `CCCCN(CC)CCNC(=O)c1cc2c(C)nc3ccccc3c2o1`, the half-maximal activity concentration (AC50) is, setting by setting: under setting [2], 31.6 µM [rising, single point]; under setting [1], 31.6 µM [rising, single point].

For `O=C(CSc1nccn1-c1ccccc1)Nc1ccc2c(c1)OCO2`, the AC50 under setting [2] was 10 µM [rising, partial curve] and the AC50 under setting [1] was 14.1 µM [rising, partial curve].

`COc1ccc(N2CCN(C(=O)CSc3nnc(-c4cc5ccccc5cc4O)n3C)CC2)cc1`: the AC50 is, setting by setting: under setting [2], 1.78 µM [rising, full curve, poor fit]; under setting [1], 11.2 µM [rising, partial curve].

On to `O=C(Nc1ccccc1)c1cc2ccccc2c(=O)s1`, for which, under setting [1], the AC50 was 11.2 µM [rising, partial curve].

Take `COc1ccc(/C=C/C(=O)N2CCCc3ccccc32)cc1`: under setting [1], the AC50 was 11.2 µM [rising, partial curve, poor fit].

Take `O=S(=O)(CCN1CCN(C(c2ccccc2)c2ccccc2)CC1)C(F)(F)F`: under setting [2], the AC50 is 12.6 µM [falling, single point].

Turning to `CCC(=O)O[C@@H]1[C@H](C)O[C@H](O[C@H]2[C@@H](N(C)C)[C@H](O)[C@@H](O[C@@H]3[C@@H](CC=O)C[C@@H](C)[C@@H](O)/C=C\C=C/C[C@@H](C)OC(=O)C[C@@H](OC(=O)CC)[C@H]3OC)O[C@H]2C)C[C@]1(C)O`, the AC50 under setting [2] is 0.224 µM [falling, full curve].

`Cc1cccc(N2CCN(c3ccc(N4C(=O)CCCC4=O)cc3[N+](=O)[O-])CC2C)c1` (stereo not drawn): the AC50 under setting [2] is 6.31 µM [rising, single point] and the concentration at half-maximal activity (AC50) under setting [1] is 35.5 µM [rising, single point].

`Cc1ccc2sc(N(CCCN(C)C)C(=O)c3ccc(S(=O)(=O)N(C)C)cc3)nc2c1C`: the AC50 under setting [1] is 0.891 µM [rising, single point].

Regarding `Cc1ccc(CSC(Nc2ccc(F)cc2)=C(C#N)C#N)cc1`, the AC50 by setting is: under setting [2], 14.1 µM [rising, single point]; under setting [1], 15.8 µM [rising, partial curve].

On to `CCCNC(=O)OC[C@H]1O[C@H](CCO/N=C/C[C@@H]2C=C[C@H](OC(C)=O)[C@@H](COC(C)=O)O2)C=C[C@@H]1Oc1ccc(OC)cc1`, for which the AC50 under setting [1] was 31.6 µM [rising, single point].

As to `CCn1cc(/C=C/C(=O)Nc2c(C)nn(Cc3ccccc3)c2C)cn1`, the AC50 was 7.08 µM [rising, full curve] under setting [2] and 8.91 µM [rising, partial curve] under setting [1].

Consider `CCOc1ccc(OCC)c(NS(=O)(=O)c2c(C)[nH]c(=O)[nH]c2=O)c1`, for which the AC50 under setting [1] is 1.58 µM [falling, partial curve, poor fit].

As to `Cc1ccc(C)c(NC(=O)CSc2c(C)cnc3c2c(=O)n(C)c(=O)n3C)c1`, the AC50 under setting [2] is 35.5 µM [rising, single point] and the AC50 under setting [1] was 31.6 µM [rising, single point].

Regarding `N[C@@H](Cc1c[nH]c2ccc(O)cc12)C(=O)O`, the AC50 under setting [1] is 0.0398 µM [falling, full curve, poor fit].

As for `Cc1[nH]c2ccccc2c1C(=O)COC(=O)c1c(-c2ccccc2)noc1C`, the concentration at half-maximal activity (AC50) under setting [1] was 35.5 µM [rising, single point].

`CN(C)c1ncc2nc(-c3ccccc3)c(=O)n(CCc3ccccc3)c2n1`: under setting [2], the AC50 was 0.00891 µM [falling, full curve, poor fit].

Turning to `N#CC1=C(N)SC(N)=C(C#N)C1c1ccc([N+](=O)[O-])cc1`, the AC50 under setting [1] was 35.5 µM [rising, single point].
